# Assay results taken from article PMC12858346.
# The chains behind the UniProt entries cited, without tags or fusion partners. Where a name states a change or a piece, a line headed by the entry shows the natural chain unless it says otherwise.
# UniProt Q9UM54: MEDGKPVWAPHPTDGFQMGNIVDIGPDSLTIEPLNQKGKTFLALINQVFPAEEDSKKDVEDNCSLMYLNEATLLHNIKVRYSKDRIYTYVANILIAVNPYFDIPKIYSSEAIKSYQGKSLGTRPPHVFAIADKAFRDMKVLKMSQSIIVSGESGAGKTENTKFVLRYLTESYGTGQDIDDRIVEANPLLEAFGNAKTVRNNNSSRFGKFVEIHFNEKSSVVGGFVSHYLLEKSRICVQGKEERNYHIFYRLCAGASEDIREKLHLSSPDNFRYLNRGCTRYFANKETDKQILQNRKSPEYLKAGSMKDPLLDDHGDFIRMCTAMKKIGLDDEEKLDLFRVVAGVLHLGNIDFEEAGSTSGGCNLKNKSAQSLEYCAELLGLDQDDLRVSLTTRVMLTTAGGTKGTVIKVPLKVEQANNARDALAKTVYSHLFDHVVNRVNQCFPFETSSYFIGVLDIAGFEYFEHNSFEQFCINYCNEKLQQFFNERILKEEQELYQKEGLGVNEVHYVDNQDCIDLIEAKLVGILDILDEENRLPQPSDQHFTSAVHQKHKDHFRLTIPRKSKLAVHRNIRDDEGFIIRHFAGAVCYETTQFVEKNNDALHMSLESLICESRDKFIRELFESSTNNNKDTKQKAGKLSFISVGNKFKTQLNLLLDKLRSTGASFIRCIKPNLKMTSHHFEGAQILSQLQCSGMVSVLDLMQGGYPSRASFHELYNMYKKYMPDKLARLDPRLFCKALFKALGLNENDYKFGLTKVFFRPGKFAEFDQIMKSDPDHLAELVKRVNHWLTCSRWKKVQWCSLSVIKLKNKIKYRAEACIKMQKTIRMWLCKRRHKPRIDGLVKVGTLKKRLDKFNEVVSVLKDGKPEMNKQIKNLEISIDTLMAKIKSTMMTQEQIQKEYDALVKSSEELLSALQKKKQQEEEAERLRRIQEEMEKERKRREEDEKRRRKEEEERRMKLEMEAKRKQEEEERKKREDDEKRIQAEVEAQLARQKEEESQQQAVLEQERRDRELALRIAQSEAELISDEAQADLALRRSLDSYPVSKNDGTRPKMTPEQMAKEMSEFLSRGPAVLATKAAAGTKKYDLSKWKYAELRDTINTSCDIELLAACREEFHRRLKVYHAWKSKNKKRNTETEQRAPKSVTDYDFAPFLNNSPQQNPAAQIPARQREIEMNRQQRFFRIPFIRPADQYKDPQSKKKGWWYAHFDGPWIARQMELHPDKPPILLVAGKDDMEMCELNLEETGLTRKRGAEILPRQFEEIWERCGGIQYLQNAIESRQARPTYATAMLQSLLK
# UniProt P07288: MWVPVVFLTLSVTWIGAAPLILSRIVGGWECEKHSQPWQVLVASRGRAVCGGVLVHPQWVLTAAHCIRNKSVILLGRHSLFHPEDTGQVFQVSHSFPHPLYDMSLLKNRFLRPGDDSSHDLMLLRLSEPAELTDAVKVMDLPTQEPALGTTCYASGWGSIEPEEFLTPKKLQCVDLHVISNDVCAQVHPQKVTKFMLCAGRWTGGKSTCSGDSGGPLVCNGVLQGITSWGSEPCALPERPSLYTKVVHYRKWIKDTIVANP
# UniProt P10275: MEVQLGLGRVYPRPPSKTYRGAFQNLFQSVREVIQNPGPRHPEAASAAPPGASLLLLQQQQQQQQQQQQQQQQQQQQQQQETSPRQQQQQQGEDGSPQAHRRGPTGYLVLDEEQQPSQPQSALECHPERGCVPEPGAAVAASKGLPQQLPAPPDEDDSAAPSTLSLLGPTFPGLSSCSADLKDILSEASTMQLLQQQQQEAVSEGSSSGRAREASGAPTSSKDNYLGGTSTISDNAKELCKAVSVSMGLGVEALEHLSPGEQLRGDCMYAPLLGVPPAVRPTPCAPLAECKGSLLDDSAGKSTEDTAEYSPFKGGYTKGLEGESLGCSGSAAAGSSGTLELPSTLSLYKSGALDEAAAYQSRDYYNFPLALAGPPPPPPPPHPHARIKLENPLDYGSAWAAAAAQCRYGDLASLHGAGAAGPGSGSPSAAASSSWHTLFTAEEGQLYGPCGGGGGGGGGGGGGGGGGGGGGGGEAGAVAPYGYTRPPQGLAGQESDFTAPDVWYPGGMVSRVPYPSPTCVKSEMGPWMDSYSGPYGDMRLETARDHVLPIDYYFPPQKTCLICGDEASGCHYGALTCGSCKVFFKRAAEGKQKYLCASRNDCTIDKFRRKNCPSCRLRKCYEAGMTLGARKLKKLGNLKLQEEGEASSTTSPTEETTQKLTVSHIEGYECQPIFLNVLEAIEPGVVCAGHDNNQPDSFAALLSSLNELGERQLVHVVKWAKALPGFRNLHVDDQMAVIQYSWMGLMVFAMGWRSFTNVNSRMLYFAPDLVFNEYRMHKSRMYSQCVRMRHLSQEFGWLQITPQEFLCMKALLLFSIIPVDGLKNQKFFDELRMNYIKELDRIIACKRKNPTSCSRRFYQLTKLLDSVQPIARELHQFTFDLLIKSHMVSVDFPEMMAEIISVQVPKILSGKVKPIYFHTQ
# Target: eGFP-myosin VI (full-length), expressed in LNCaP cells (UniProt Q9UM54)
# Assay: affinity purification with mass spectrometry; GFP-Trap agarose immunoprecipitation from RIPA lysates of LNCaP cells expressing eGFP-myosin VI or eGFP alone, treated with EtOH or DHT; label-free mass spectrometry; DHT compared with EtOH
row,binding,Substance
1,binds,KLK3/prostate-specific antigen (PSA) (from UniProt P07288) (enzyme)
2,binds,"androgen receptor (AR), endogenous in LNCaP cells (from UniProt P10275 1-920)"

# No constants are given. Whether binding was seen depends on the method and setting. Binding seen in cells or lysates may run through a third protein. A yes stands for co-enrichment or nearness to the bait. Other partners may have been found.
